Test results published in EP4745153A1, “GLP-1, GIP AND GCG RECEPTOR […] USE THEREOF” (Jiangsu Hengrui Pharmaceuticals Co., Ltd., priority 2023, dated 2025).
At least one peptide structure holds a part that was inferred or is arguable (an end, a ring closure or a residue). Some entries repeat one wording, which the source may state once for all of them. Starred links: 1 amine or outer side, 2 acyl side, 3 side chain; linkers in the order of their positions; H or OH if unused. Non-standard residues stand in square brackets, D forms with d. Residues, ends and D or L forms follow the SMILES beside them. Groups on a side chain read outwards from the residue. *: point of attachment. C20 diacid = O=C(O)CCCCCCCCCCCCCCCCCCC(=O)*; γGlu = O=C(O)[C@H](CCC(=O)[*:2])N[*:1]; αMeL = CC(C)C[C@](C)(N)C(=O)O; αMeK = C[C@](N)(CCCCN)C(=O)O; αMeS = C[C@](N)(CO)C(=O)O; AEEA = NCCOCCOCC(=O)O; Aib = CC(C)(N)C(=O)O

Assays:
[1] = In vivo efficacy in diet-induced obesity (DIO) mouse model; parameters: species or system C57BL/6J mice; details: for body weight of DIO mice compared with the test group given the vehicle / body weight reduction at the experimental endpoint: 10 nmol/kg subcutaneous once daily for 24 days
Excerpt: In this example, a DIO mouse model established by high-fat diet induction was used to evaluate the effects on and improvement of obesity and diabetes-related indicators in DIO mice after subcutaneous injection of some of the compounds in the present disclosure.
4.1 Experimental methods: Obese male C57BL/6J mice (23-24 weeks old, obtained from Beijing Vital River Laboratory Animal Technology Co., Ltd.) induced by a high-fat diet were purchased. Six-week-old male C57BL/6J mice were fed a 60% high-fat diet (RD D12492) until their body weight reached 45-50g to obtain DIO model mice. After arriving at the facility and undergoing a week of acclimatization feeding, the animals were randomly divided into groups according to their body weight and administered vehicle (model group), LY3437943, Compound 15, Compound 16, Compound 17 and Compound 18 via subcutaneous injection in the neck. The compound was administered at a dose of 10 nmol/kg, and the frequency of administration was once daily via subcutaneous injection for 24 days. Each group contained 5 DIO mice. According to the experimental design, the body weight of each mouse was weighed and recorded daily at 3 pm or before administration, the average body weight of each group of mice was calculated, and a curve of body weight change over time was plotted. After the experiment, the fat and other organs of the mice were removed from various parts of the body, weighed, and recorded.

[2] = In vivo efficacy in diet-induced obesity (DIO) rat model; details: DIO rats
Method: In this experiment, a DIO rat model established on a 45% high-fat diet (HFD) was used to evaluate the effects of compounds on obesity-related indicators in DIO rats.
After one week of acclimatization, all rats were randomly divided into two groups: a normal group and a model group. The rats in the model group were then fed 45% HFD (Medison: MD12032), while the rats in the normal group were fed normal food. The body weight of the rats was measured weekly to monitor the modeling process.
DIO rats fed a high-fat diet for 37 weeks were weighed, and 75 DIO rats (approximately 1100g) and 8 rats (approximately 800g) on a normal diet (Chow diet) were selected and separated into individual cages. Each cage was fed approximately 100g of food at a time, and the food was changed every 48 hours. A preliminary sham dose experiment was then conducted. Subcutaneous acupuncture was performed on the neck once daily at 4 pm for 9 consecutive days. Body weight was measured before each acupuncture session and the effect of sham dose on body weight was observed. A curve of body weight changes over time was plotted. The formal dosing experiment was initiated after the body weight had stabilized.
Six Chow diet rats (weighing approximately 800g) and 30 HFD rats (weighing approximately 1100g) were selected through a preliminary sham dose experiment for subsequent dosing experiments. […] During the experiment, all rats were housed in single cages. The compound was dissolved in PBS solution at pH 7.4. On the day of grouping (Day 1), rats in each group were given the drug by subcutaneous injection in the neck according to their body weight, once daily (QD), as detailed in Table 9. […] The body weight was measured once daily at 15:00 or before administration, and a curve of body weight changes over time was plotted. Food intake: 1-7 days, measured once daily at 15:00 or before administration; 8-40 days, measured once every three days at 15:00 or before administration. A curve of changes in daily/cumulative food intake over time was plotted. Table 9. Dosing information for experimental groups

[3] = Physical stability of solution in the vehicle; type: physicochemical; details: dissolved in the vehicle, 25 degrees Celsius for 28 days; stated in the summary only, no test example
[4] = after dose adjustment, 3 nmol/kg subcutaneous QD

For `CC[C@H](C)[C@H](NC(=O)[C@](C)(CCCCN)NC(=O)[C@H](CO)NC(=O)[C@H](Cc1ccc(O)cc1)NC(=O)[C@H](CC(=O)O)NC(=O)[C@H](CO)NC(=O)[C@@H](NC(=O)[C@H](Cc1ccccc1)NC(=O)[C@@H](NC(=O)CNC(=O)[C@H](Cc1c[nH]cn1)NC(=O)C(C)(C)NC(=O)[C@@H](N)Cc1c[nH]cn1)[C@@H](C)O)[C@@H](C)O)C(=O)N[C@@H](CC(C)C)C(=O)N[C@@H](CCC(=O)O)C(=O)N[C@@H](CCCCNC(=O)COCCOCCNC(=O)COCCOCCNC(=O)CC[C@H](NC(=O)CCCCCCCCCCCCCCCCCCC(=O)O)C(=O)O)C(=O)N[C@@H](CCCCN)C(=O)N[C@@H](C)C(=O)N[C@@H](C)C(=O)N[C@@H](CCC(N)=O)C(=O)N[C@@H](CCC(=O)O)C(=O)N[C@@H](Cc1ccccc1)C(=O)N[C@H](C(=O)N[C@@H](CCC(=O)O)C(=O)N[C@@H](Cc1c[nH]c2ccccc12)C(=O)N[C@@H](CC(C)C)C(=O)N[C@@H](CC(C)C)C(=O)N[C@@H](C)C(=O)NCC(=O)NCC(=O)N1CCC[C@H]1C(=O)N[C@@H](CO)C(=O)N[C@@H](CO)C(=O)NCC(=O)N[C@@H](C)C(=O)N1CCC[C@H]1C(=O)N1CCC[C@H]1C(=O)N1CCC[C@H]1C(=O)N[C@@H](CO)C(N)=O)C(C)C` [Compound 0119] (H-H[Aib]HGTFTSDYS[αMeK]ILEK([AEEA-AEEA-γGlu-C20 diacid])KAAQEFVEWLLAGGPSSGAPPPS-NH2), the “body weight of DIO mice compared with the test group given the vehicle” value [1] was “significant reduction in body weight” and the “body weight reduction at the experimental endpoint” value (“body weight reduction” for short) ([1]; DIO mice) was 50.2%.
With `CC[C@H](C)[C@H](NC(=O)[C@H](CO)NC(=O)[C@H](Cc1ccc(O)cc1)NC(=O)[C@H](CC(=O)O)NC(=O)[C@H](CO)NC(=O)[C@@H](NC(=O)[C@H](Cc1ccccc1)NC(=O)[C@@H](NC(=O)CNC(=O)[C@H](Cc1c[nH]cn1)NC(=O)C(C)(C)NC(=O)[C@@H](N)Cc1c[nH]cn1)[C@@H](C)O)[C@@H](C)O)C(=O)N[C@@](C)(CC(C)C)C(=O)N[C@@H](CC(C)C)C(=O)N[C@@H](CCC(=O)O)C(=O)N[C@@H](CCCCNC(=O)COCCOCCNC(=O)COCCOCCNC(=O)CC[C@H](NC(=O)CCCCCCCCCCCCCCCCCCC(=O)O)C(=O)O)C(=O)N[C@@H](CCCCN)C(=O)N[C@@H](C)C(=O)N[C@@H](C)C(=O)N[C@@H](CCC(N)=O)C(=O)N[C@@H](CCC(=O)O)C(=O)N[C@@H](Cc1ccccc1)C(=O)N[C@H](C(=O)N[C@@H](CCC(=O)O)C(=O)N[C@@H](Cc1c[nH]c2ccccc12)C(=O)N[C@@H](CC(C)C)C(=O)N[C@@H](CC(C)C)C(=O)N[C@@H](C)C(=O)NCC(=O)NCC(=O)N1CCC[C@H]1C(=O)N[C@@H](CO)C(=O)N[C@@H](CO)C(=O)NCC(=O)N[C@@H](C)C(=O)N1CCC[C@H]1C(=O)N1CCC[C@H]1C(=O)N1CCC[C@H]1C(=O)N[C@@H](CO)C(N)=O)C(C)C` [Compound 0125] (H-H[Aib]HGTFTSDYSI[αMeL]LEK([AEEA-AEEA-γGlu-C20 diacid])KAAQEFVEWLLAGGPSSGAPPPS-NH2) the “body weight of DIO mice compared with the test group given the vehicle” value [1] was “significant reduction in body weight”, the “body weight reduction” value ([1]; DIO mice) was 30.7% and the “reduction in body weight compared with LY3437943” value ([1]; DIO mice, 10 nmol/kg subcutaneous once daily, period from Day 5 to Day 15) was “significantly greater reduction in body weight than LY3437943”. The “24h food intake compared with the model group” value [2, 4] was “significantly reduced”, the “cumulative food intake compared with the model group” value [2, 4] was “significantly reduced” and the cumulative food intake ([2]; entire administration period (before and after dose adjustment), 0.3 then 3 nmol/kg subcutaneous QD) was 224.5 ± 25.8 g. The “body weight loss at the end of the experiment” value ([2]; subcutaneous QD, 0.3 nmol/kg adjusted to 3 nmol/kg from day 15) was 33.2%, the “body weight compared with the model group” value ([2]; subcutaneous QD, 1 nmol/kg, before adjusting the administration dose) was “decreasing trend” and the “appearance of the solution after incubation” value [3] was “clear and transparent”.
With `CC[C@H](C)[C@H](NC(=O)[C@H](CC(C)C)NC(=O)[C@H](Cc1c[nH]c2ccccc12)NC(=O)[C@H](CCC(=O)O)NC(=O)[C@@H](NC(=O)[C@H](Cc1ccccc1)NC(=O)[C@H](CCC(=O)O)NC(=O)[C@](C)(CO)NC(=O)[C@H](C)NC(=O)[C@H](C)NC(=O)[C@H](CCCCN)NC(=O)[C@H](CCCCNC(=O)COCCOCCNC(=O)COCCOCCNC(=O)CC[C@H](NC(=O)CCCCCCCCCCCCCCCCCCC(=O)O)C(=O)O)NC(=O)[C@H](CCC(=O)O)NC(=O)[C@H](CC(C)C)NC(=O)[C@H](CC(C)C)NC(=O)[C@](C)(CCCCN)NC(=O)[C@H](CO)NC(=O)[C@H](Cc1ccc(O)cc1)NC(=O)[C@H](CC(=O)O)NC(=O)[C@H](CO)NC(=O)[C@@H](NC(=O)[C@H](Cc1ccccc1)NC(=O)[C@@H](NC(=O)CNC(=O)[C@H](Cc1c[nH]cn1)NC(=O)C(C)(C)NC(=O)[C@@H](N)Cc1c[nH]cn1)[C@@H](C)O)[C@@H](C)O)C(C)C)C(=O)N[C@@H](CCC(=O)O)C(=O)NCC(=O)NCC(=O)N1CCC[C@H]1C(=O)N[C@@H](CO)C(=O)N[C@@H](CO)C(=O)NCC(=O)N[C@@H](C)C(=O)N1CCC[C@H]1C(=O)N1CCC[C@H]1C(=O)N1CCC[C@H]1C(=O)N[C@@H](CO)C(N)=O` [Compound 0126] (H-H[Aib]HGTFTSDYS[αMeK]LLEK([AEEA-AEEA-γGlu-C20 diacid])KAA[αMeS]EFVEWLIEGGPSSGAPPPS-NH2) the “body weight of DIO mice compared with the test group given the vehicle” value [1] was “significant reduction in body weight”, the “body weight reduction” value ([1]; DIO mice) was 52.1% and the “appearance of the solution after incubation” value [3] was “clear and transparent”.
